Experimental data: PubChem BioAssay AID1224830 (NIAID, 2016)

Test: 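Host factors that control LPS-induced TNF expression in human macrophages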 (primary screen)
Cells: human THP-1 monocytic leukaemia cells, TNF dual-luciferase reporter clone, PMA-differentiated to macrophage-like cells
Knock-down reagent: siRNA pool against human genes, 50 nM
Time to read-out: LPS for 4 h, given about 3 days after siRNA transfection
Treatment: bacterial LPS (TLR4 ligand), 10 ng/ml
Measurement: 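Ratio of firefly to renilla light, scaled to the plate median and expressed as a robust z-score per replicate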
Direction: TNF reporter robust z-score: higher = stronger TNF reporter response to LPS
Call rule: 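a well is active when its z-score exceeds 2.8 or falls below -1.5; control wells carry no call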
Here is a random part of about 18,000 deposited reagents. Of all reagents, about 2,900 (16%) got an active call. 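Calls are made per well; low scores hint the gene aids the LPS response, high scores that it dampens it.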 Unmarked entries are inactive. Repeated entries: four replicate wells of each siRNA pool.

TNF reporter robust z-score | Gene
1.74 | MPRIP (GeneID 23164)
0.45 | MPRIP (GeneID 23164)
-0.47 | MPRIP (GeneID 23164)
-0.15 | MPRIP (GeneID 23164)
1.61 | HBS1L (GeneID 10767)
1.7 | HBS1L (GeneID 10767)
-0.18 | HBS1L (GeneID 10767)
3.92 (active) | HBS1L (GeneID 10767)
0.27 | TNRC6A (GeneID 27327)
1.23 | TNRC6A (GeneID 27327)
-0.63 | TNRC6A (GeneID 27327)
1.44 | TNRC6A (GeneID 27327)
-0.91 | COX4I2 (GeneID 84701)
-0.9 | COX4I2 (GeneID 84701)
-1.18 | COX4I2 (GeneID 84701)
-0.78 | COX4I2 (GeneID 84701)
0.86 | HYAL4 (GeneID 23553)
1.44 | HYAL4 (GeneID 23553)
0.68 | HYAL4 (GeneID 23553)
2.18 | HYAL4 (GeneID 23553)
-0.96 | GMPR2 (GeneID 51292)
-0.33 | GMPR2 (GeneID 51292)
-0.79 | GMPR2 (GeneID 51292)
-0.3 | GMPR2 (GeneID 51292)
0.33 | DOCK8-AS1 (GeneID 157983)
0.48 | DOCK8-AS1 (GeneID 157983)
0.59 | DOCK8-AS1 (GeneID 157983)
-0.18 | DOCK8-AS1 (GeneID 157983)
-1.08 | PFDN1 (GeneID 5201)
0.22 | PFDN1 (GeneID 5201)
-0.4 | PFDN1 (GeneID 5201)
0.52 | PFDN1 (GeneID 5201)
-0.45 | APOA1 (GeneID 335)
-0.89 | APOA1 (GeneID 335)
-1.03 | APOA1 (GeneID 335)
-0.31 | APOA1 (GeneID 335)
-0.3 | VIPR2 (GeneID 7434)
-0.42 | VIPR2 (GeneID 7434)
0.36 | VIPR2 (GeneID 7434)
0.16 | VIPR2 (GeneID 7434)
0.21 | MLEC (GeneID 9761)
-0.01 | MLEC (GeneID 9761)
0.99 | MLEC (GeneID 9761)
1.14 | MLEC (GeneID 9761)
-0.44 | SPRN (GeneID 503542)
-0.05 | SPRN (GeneID 503542)
-0.22 | SPRN (GeneID 503542)
0.57 | SPRN (GeneID 503542)
